Results are given in words; binding and its absence hold for the method and conditions named. For part of these data: In cells and extracts the contact can be indirect. Some binding calls cover weakened binding; strength is not graded here. For part of these data: Sequences can lack the tags named with a protein. Values belong to the binder of their own block, whether it stands above or below them.
Assays:
[1] = target: EAAT4 carboxy-intracellular domain bait (final 77 amino acids of EAAT4 in pGBT9) (UniProt P04386); assay: yeast two-hybrid, EAAT4 final 77 amino acids bait against rat brain cDNA library
[2] = target: EAAT4 carboxy-intracellular domain bait (final 77 amino acids of EAAT4 in pGBT9) (UniProt P04386); assay: yeast two-hybrid
[3] = target: EAAC1 carboxy-terminal intracellular domain bait (carboxy-87 amino acids) (UniProt P04386); assay: yeast two-hybrid, EAAC1 carboxy-terminal bait against adult rat brain cDNA library, β-galactosidase
[4] = target: T1, EAAC1, full-length glutamate transporter (rat) (UniProt P51907); assay: co-immunoprecipitation from rat brain extract, Western blotting
T1 sequence (looked up): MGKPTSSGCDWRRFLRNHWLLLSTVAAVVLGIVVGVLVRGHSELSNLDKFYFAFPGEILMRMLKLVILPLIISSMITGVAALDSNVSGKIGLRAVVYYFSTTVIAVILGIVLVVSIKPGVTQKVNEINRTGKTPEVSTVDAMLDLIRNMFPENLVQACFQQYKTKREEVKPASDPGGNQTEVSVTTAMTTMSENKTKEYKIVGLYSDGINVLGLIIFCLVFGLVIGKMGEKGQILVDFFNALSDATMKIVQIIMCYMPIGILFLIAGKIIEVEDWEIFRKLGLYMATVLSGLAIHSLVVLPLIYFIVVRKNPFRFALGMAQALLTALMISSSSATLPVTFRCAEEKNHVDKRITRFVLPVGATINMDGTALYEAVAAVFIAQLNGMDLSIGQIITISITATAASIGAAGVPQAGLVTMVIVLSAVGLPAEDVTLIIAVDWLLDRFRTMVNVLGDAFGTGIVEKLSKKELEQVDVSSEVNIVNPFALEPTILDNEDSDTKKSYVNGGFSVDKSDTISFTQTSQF

[5] = target: T1, EAAC1, full-length glutamate transporter (rat); assay: co-immunoprecipitation from transfected HEK293 cells
[6] = target: T2, GST-EAAC1 fusion protein (UniProt P51907); assay: cell-free binding of [35S]-labeled protein to GST fusion on glutathione-Sepharose
T2 sequence (looked up): T1 sequence (looked up)

B3: GTRAP3-18 (glutamate transporter EAAC1 associated protein), full-length (protein)
chain: MDVNLAPLRAWDDFFPGSDRFARPDFRDISKWNNRVVSNLLYYQTNYLVVAAMMISVVGFLSPFNMILGGIIVVLVFTGFVWAAHNKDILRRMKKQYPTAFVMVVMLASYFLISMFGGVMVFVFGITFPLLLMFIHASLRLRNLKNKLENKMEGIGLKKTPMGIILDALEQQEDSINKFADYISKARE
binding [4]: binds

B5: [35S]-methionine labelled GTRAP3-18 made by in vitro transcription and translation (protein)
chain: B3 chain
modifications: labeled with [35S]-methionine
binding [6]: binds

Second part, the binder after the results:

binding [1]: binds
binding [2]: binds
B1: GTRAP4-48 yeast two-hybrid clone (1.4 kb cDNA fragment in pGAD10; last 155 amino acids) (protein, not shown: large carriers)
chain: FYVSMPAGPLDSSTEPTGTPPSPSQCHSLPAWPTEPQPYRGVRGGQCSSLVRRDVDVIFHTIEQLTIKLHRLKDMELAHRELLKSLGGESSGGTTPVGSFHTEAARWTDYSLSPPAKEALASDSQNGQEQGSCPEEGSDIALEDSATDTAVSPGP

binding [3]: binds
B2: clone E18 (GTRAP3-18 full-length cDNA) of the yeast two-hybrid screen (protein, not shown: large carriers)
chain: B3 chain

binding [5]: binds
B4: amino-terminus c-myc tagged GTRAP3-18 (protein, not shown: small tags and cut ends)
chain: B3 chain

— US6808893
